This assay concerns the target receptors TIE2 of ANG2 on HUVEC cells (human) (UniProt Q02763). The assay is described as follows: flow cytometry, His-tagged human ANG2 (10 ug/mL) on HUVEC cells, PE anti-His. For orientation: Flow cytometry measures light scatter and fluorescence of single cells or particles in a stream.

Sequences of proteins named here, by UniProt entry; tags and fusion partners are left off. Residues count along the entry.
UniProt Q02763, residues 23-1124: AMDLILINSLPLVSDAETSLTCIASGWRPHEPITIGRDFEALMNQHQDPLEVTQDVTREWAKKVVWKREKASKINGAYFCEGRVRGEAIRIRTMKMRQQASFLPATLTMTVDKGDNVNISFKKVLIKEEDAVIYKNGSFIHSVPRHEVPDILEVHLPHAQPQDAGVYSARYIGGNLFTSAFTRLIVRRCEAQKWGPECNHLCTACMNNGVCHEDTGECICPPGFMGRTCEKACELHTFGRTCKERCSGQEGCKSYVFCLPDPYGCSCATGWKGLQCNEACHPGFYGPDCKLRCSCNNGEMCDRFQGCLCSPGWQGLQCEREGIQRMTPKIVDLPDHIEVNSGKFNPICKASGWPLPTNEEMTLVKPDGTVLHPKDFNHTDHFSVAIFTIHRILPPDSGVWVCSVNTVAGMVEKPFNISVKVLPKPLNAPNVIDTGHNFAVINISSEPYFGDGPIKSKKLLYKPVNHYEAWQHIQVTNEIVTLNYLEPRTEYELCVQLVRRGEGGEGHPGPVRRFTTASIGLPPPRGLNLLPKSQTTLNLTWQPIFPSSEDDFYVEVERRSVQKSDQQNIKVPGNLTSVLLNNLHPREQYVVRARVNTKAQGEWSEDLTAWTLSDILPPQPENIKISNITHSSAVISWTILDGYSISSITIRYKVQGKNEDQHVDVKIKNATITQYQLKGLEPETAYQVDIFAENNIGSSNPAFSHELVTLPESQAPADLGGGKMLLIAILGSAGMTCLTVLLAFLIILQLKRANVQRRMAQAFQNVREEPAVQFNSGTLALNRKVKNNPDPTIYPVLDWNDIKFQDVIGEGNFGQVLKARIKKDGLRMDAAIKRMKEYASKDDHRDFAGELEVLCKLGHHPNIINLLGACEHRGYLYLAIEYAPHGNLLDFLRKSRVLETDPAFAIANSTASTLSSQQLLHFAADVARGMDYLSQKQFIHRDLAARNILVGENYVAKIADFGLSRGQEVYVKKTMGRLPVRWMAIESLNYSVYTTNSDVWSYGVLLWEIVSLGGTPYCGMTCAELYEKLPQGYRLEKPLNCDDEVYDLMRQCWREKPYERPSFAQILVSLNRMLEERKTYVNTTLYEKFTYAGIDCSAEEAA
UniProt O15123, residues 19-496: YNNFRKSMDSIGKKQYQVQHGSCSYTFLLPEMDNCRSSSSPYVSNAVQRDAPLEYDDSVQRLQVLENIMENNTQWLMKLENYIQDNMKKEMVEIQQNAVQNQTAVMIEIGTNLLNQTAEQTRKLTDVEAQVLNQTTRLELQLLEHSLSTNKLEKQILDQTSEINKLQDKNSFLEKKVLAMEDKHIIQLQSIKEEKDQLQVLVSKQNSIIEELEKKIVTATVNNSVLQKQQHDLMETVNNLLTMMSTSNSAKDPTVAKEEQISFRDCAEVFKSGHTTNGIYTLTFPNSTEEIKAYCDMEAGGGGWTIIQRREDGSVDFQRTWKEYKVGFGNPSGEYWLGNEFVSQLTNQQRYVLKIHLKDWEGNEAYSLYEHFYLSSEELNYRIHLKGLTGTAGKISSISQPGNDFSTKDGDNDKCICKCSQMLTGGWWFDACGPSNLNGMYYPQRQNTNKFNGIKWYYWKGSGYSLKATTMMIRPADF

These are yes or no findings as the source states them, for the method shown. Some binding calls cover weakened binding; strength is not graded here.

For “human ANG2 protein (623-AN-025/CF, R&D) (from UniProt O15123 19-496) (ligand)”, the binding result was “binds”.
